The results are deposited in PubChem (AID977630; Broad Institute, 2014).

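Mixed E. coli culture in which the wild-type GFP-labelled strain's fluorescence is read after 24 h, reported as change in activity.
Percent-style change in GFP activity at 50 µM; values more negative mean stronger inhibition.
Active needs green reporter loss at least twice the red loss with limited overall growth inhibition; inconclusive means no clear call.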

Common to all entries: at 50 µM (top of the series).
Every entry below has the call inconclusive.
Only part of the assay is shown, chiefly results filed as inconclusive.

{"smiles": "COc1cccc(OCCNS(=O)(=O)c2ccccc2[N+](=O)[O-])c1", "activity change": "-22.79"}
{"smiles": "C=C(C)Cn1c(SCC(=O)O)nc2c1c(=O)[nH]c(=O)n2C", "activity change": "35.73"}
{"smiles": "COc1ccc(-c2csc3ncn(-c4ccc(C)cc4)c(=O)c23)cc1OC", "activity change": "-15.33"}
{"smiles": "COC(=O)c1ccc(CSc2nc(-c3ccccc3)cs2)o1", "activity change": "-36.08"}
{"smiles": "O=[N+]([O-])c1ccc(NCCNCCOc2nonc2-c2ccccc2)c([N+](=O)[O-])c1", "activity change": "-26.43"}
{"smiles": "C[C@@H]1CN([C@H](C)CO)C(=O)c2c(c3ccccc3n2C)-c2ccccc2CO[C@@H]1CN(C)C(=O)CCN(C)C", "activity change": "41.43"}
{"smiles": "Cc1ccccc1OCc1nc2ccccc2n1C", "activity change": "-14.31"}
{"smiles": "COc1ccc(-n2ccnc2SCC(=O)NCc2ccccc2)c(OC)c1", "activity change": "17.07"}
{"smiles": "COc1ccccc1NC(=O)COC(=O)Cc1c[nH]c2ccccc12", "activity change": "-24.74"}
{"smiles": "Cn1c(SCCOc2ccccc2F)nc2ccccc2c1=O", "activity change": "-37.48"}
{"smiles": "COc1cc(OC)c(NS(=O)(=O)c2cccc(C(=O)OCC(=O)NCC3CCCO3)c2)cc1Cl", "stereo": "configuration not stated", "activity change": "14.65"}
{"smiles": "Cc1ccc(Cc2c(-c3ccc(C#N)cc3)nc3ccc(Br)cn23)cc1", "activity change": "-1.873"}
{"smiles": "O=C1CCCc2c1nc(-c1ccc([N+](=O)[O-])cc1)n2O", "activity change": "-9.009"}
{"smiles": "COc1ccc(-c2csc(NC(=O)CC(NC(C)=O)c3ccccc3)n2)cc1OC", "stereo": "configuration not stated", "activity change": "-42.13"}
{"smiles": "Cc1cc(F)ccc1-c1cc(C(=O)NCC2CCCCC2)[nH]n1", "activity change": "-41.73"}
{"smiles": "Cc1ccc(F)c(NC(=O)CCOc2ccccc2C)c1", "activity change": "-2.478"}
{"smiles": "O=C(c1cccc2c1-c1ccccc1C2)N1CCCCC1", "activity change": "28.24"}
{"smiles": "COc1cc2c(cc1NC(=O)C(C)Sc1cccc[n+]1[O-])oc1ccccc12", "stereo": "configuration not stated", "activity change": "-7.452"}
{"smiles": "COc1ccc(NS(=O)(=O)c2ccc(Oc3c(C#N)cccc3C#N)cc2)cc1", "activity change": "-24.45"}
{"smiles": "CCOc1ccc(CCNC(=O)CCc2nc3ccccc3[nH]2)cc1OCC", "activity change": "-13.77"}
{"smiles": "O=C(COc1cccc2c1CCN(Cc1ccc(Br)cc1)C2=O)N1CCOCC1", "activity change": "-15.72"}
{"smiles": "Cc1cc(C)cc(NC(=O)c2cccc(NC(=O)C3C4CC5OC(=O)C3C5C4)c2)c1", "stereo": "configuration not stated", "activity change": "2.213"}
{"smiles": "Cc1ccc(-c2n[nH]c(S(C)(=O)=O)c2C#N)cc1", "activity change": "-0.276"}
{"smiles": "CCOc1cccc2sc(NC(=O)CC)nc12", "activity change": "-9.512"}
{"smiles": "COc1cccc(C(NC(C)=O)c2nc(-c3ccccc3OC)cs2)c1", "stereo": "configuration not stated", "activity change": "-13.22"}
{"smiles": "O=C(c1cc(C(=O)N2CCOCC2)c2nc3ccccc3n2c1)c1cc(Cl)cc(Cl)c1O", "activity change": "-33.14"}
{"smiles": "CCOc1ccc2oc(-c3ccccc3)c(C(=O)N(C)C)c2c1", "activity change": "-14.08"}
{"smiles": "CN(C)CCCn1c(=O)n(Cc2ccco2)c(=O)c2c3c(sc21)CCCCC3", "activity change": "-16.42"}
{"smiles": "O=C(c1ccccc1)N(c1ccccc1)c1nccc2ccccc12", "activity change": "-7.791"}
{"smiles": "c1ccc2c(c1)CSc1ccccc1N2", "activity change": "-2.93"}
{"smiles": "CN1C(=O)c2ccccc2OC1(C)Cc1ccccc1", "stereo": "configuration not stated", "activity change": "-33.12"}
{"smiles": "COc1ccc(OCCC(=O)OCC(=O)NCCC2=CCCCC2)cc1", "activity change": "4.664"}

The first 2 entries again:

* COc1cccc(OCCNS(=O)(=O)c2ccccc2[N+](=O)[O-])c1 : activity change -22.79
* C=C(C)Cn1c(SCC(=O)O)nc2c1c(=O)[nH]c(=O)n2C : activity change 35.73